Data: US20220305093A1, “NK-LYSIN PEPTIDE COMPOSITIONS AND METHODS FOR THEIR USE AS ANTIMICROBIAL/ANTIVIRAL AGENTS” (priority 2021, published 2022)
Read-outs that look alike come from different tables or passages of the source. Some entries share one result that the patent states for a list of compounds. Residues, ends and D or L forms follow the SMILES beside them.

Key:
[1] = tested on: Salmonella typhimurium (ATCC 14028); test: Growth kinetic activity at 2×MIC; type: cell-based; conditions: second hour
Experimental: The kinetic killing abilities of NK-lysin peptides were gauged in accordance with the Clinical Laboratory and Standard Institute (CLSI) broth micro-dilution technique presented by Wiegand and Hancock (2008). Mueller Hinton broth comprising 0.01% v/v acetic acid was prepared with 0.2% w/v bovine serum albumin, as above. […] The plate was then incubated at room temperature. […] A distinct triplicate was used to repeat the kinetic potential of NK-lysin peptides thrice.

[2] = tested on: Salmonella typhimurium (ATCC 14028); conditions: 15 μg/ml, overnight
Experimental: The minimum inhibitory concentration (MIC) is defined as the lowest concentration of an antimicrobial ingredient or agent that is bacteriostatic (prevents the visible growth of bacteria).
Mueller Hinton broth (MHB) comprising 0.01% v/v acetic acid (Sigma Aldrich; St Louis, Mo.) and 0.2% w/v bovine serum albumin (Sigma Aldrich). Equal concentrations of bacteria were plated in wells of standard tissue culture microplates at a density of 0.5×10^8 CFU ml^−1 in MHB per well. Treatments were equivalent volumes (50 μl) of NK-lysin peptides in concentrations of 0 to 150 μg/ml, or no NK-lysin peptides for control wells. The treated plates were incubated at […] and optical densities were determined for each well at 0 minutes, 1, 2 and 3 hours and after an overnight incubation.

**Q.** Which results are given for CC[C@H](C)[C@H](NC(=O)[C@H](C)NC(=O)[C@H](CC(=O)O)NC(=O)[C@H](CCC(=O)O)NC(=O)[C@H](CC(=O)O)NC(=O)[C@@H]1CCCN1)C(=O)N[C@@H](CC(N)=O)C(=O)N[C@@H](CC(N)=O)C(=O)N[C@@H](C)C(=O)N[C@@H](CC(C)C)C(=O)N[C@@H](CC(N)=O)C(=O)N[C@@H](CCCCN)C(=O)N[C@H](C(=O)N[C@@H](CS)C(=O)N[C@@H](CO)C(=O)N[C@H](C(=O)NCC(=O)N[C@@H](CCCNC(=N)N)C(=O)N[C@@H](CCCNC(=N)N)C(=O)N[C@@H](CCC(N)=O)C(=O)N[C@@H](CCCNC(=N)N)C(=O)N[C@@H](CO)C(=O)N[C@H](C(=O)N[C@@H](CS)C(=O)N[C@@H](CCCCN)C(=O)N[C@@H](CCC(N)=O)C(=O)N[C@@H](CC(C)C)C(=O)N[C@@H](CC(C)C)C(=O)N[C@@H](CCCCN)C(=O)N[C@@H](CCCCN)C(=O)O)[C@@H](C)CC)[C@@H](C)O)C(C)C [Chicken NK-lysin] (H-PDEDAINNALNKVCSTGRRQRSICKQLLKK-OH; N-terminus and C-terminus assumed)?
**A.** survival rate [1]: less than 20%; survival rate [2]: less than 5%
